Data from ChEMBL document CHEMBL4257561, “7-Deacetyl-10-alkylthiocolchicine derivatives - new compounds with potent anticancer and fungicidal activity” (Medchemcomm, 2018).

Experiments:
[1] = system: MCF7; test: cells; assay type: functional, cell-based; conditions: Homo sapiens, MCF7, 72 h
[2] = system: MDA-MB-231; test: cells; assay type: functional, cell-based; conditions: Homo sapiens, MDA-MB-231, 72 h
[3] = system: DLD-1; test: cells; assay type: functional, cell-based; conditions: Homo sapiens, DLD-1, 72 h
[4] = system: LoVo; test: cells; assay type: functional, cell-based; conditions: Homo sapiens, 72 h
[5] = system: SK-OV-3; test: cells; assay type: functional, cell-based; conditions: Homo sapiens, SK-OV-3, 72 h
[6] = system: SK-OV-3; test: cells; assay type: functional, cell-based; conditions: Homo sapiens, SK-OV-3, 72 h; remark: listed apart in the source
[7] = system: Penicillium cyclopium; test: Antifungal activity against Penicillium cyclopium Westling after 7 days by microtiter method; assay type: functional; conditions: 168 h
[8] = system: Aureobasidium pullulans; test: microbe, parasite or virus in culture; assay type: functional; conditions: BAM10 ATCC 9348, 168 h
[9] = system: Chaetomium globosum; test: microbe, parasite or virus in culture; assay type: functional; conditions: BAM12 ATCC 6205, 168 h

Compound: COc1cc2c(c(OC)c1OC)-c1ccc(SC)c(=O)cc1[C@@H](N)CC2
- IC50 [1]: 0.67 µM
- IC50 [2]: 1.26 µM
- IC50 [3]: 1.18 µM
- IC50 [4]: 1.02 µM
- IC50 [5]: 0.0013 µM
- IC50 [6]: 0.0096 µM
- MIC [7]: > 4000 µg/mL
- MIC [8]: > 4000 µg/mL
- MIC [9]: > 4000 µg/mL
